Measurements reported in PMC9481570, “A small molecule antagonist of SMN disrupts the interaction between SMN and RNAP II” (Nature Communications, 2022).

Chains of the proteins cited; added tags and fusions are not shown.
UniProt Q16637: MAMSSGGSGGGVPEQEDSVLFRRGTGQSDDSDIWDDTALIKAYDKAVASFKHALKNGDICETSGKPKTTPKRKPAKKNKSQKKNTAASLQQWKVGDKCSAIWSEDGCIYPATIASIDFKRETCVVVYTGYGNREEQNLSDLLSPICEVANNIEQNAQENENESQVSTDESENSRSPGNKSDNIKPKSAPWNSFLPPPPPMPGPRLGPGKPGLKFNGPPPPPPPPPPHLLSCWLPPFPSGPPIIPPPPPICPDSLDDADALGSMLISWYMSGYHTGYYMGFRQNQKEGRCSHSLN
UniProt Q8WXD5: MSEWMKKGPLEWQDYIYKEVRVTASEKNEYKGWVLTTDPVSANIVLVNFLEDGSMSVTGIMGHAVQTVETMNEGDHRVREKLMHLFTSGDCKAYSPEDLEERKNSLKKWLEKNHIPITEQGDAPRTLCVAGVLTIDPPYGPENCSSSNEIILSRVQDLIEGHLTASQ
UniProt O14893: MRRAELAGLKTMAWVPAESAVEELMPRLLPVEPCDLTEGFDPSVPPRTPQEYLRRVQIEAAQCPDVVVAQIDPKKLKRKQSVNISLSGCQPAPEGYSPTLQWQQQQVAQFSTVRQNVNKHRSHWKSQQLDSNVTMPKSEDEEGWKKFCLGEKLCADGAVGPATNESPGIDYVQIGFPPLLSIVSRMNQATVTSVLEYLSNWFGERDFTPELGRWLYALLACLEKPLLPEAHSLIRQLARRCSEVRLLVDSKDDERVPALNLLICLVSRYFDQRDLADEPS

Biological target: Survival of motor neuron (SMN), endogenous in U2OS cells (human (endogenous in U2OS)) (UniProt Q16637)
Assay: affinity purification with mass spectrometry; U2OS lysate in RIPA buffer, 20 uM biotin-labelled compound 1 (ligand of SMN) overnight at 4 °C, streptavidin beads; compared with competition by 200 uM free compound 1; three biological replicates

Substance	binding
GEMIN6 (from UniProt Q8WXD5 1-167)	binds
GEMIN2 (from UniProt O14893 1-280)	binds

These are yes or no findings as the source states them, for the method shown. In cells and extracts the contact can be indirect. These calls come from enrichment with a bait or labelling near it, and not all partners need be listed.
